The text below walks through data of patent US12129475B2, “Glycoalkaloid metabolism enyzymes (GAMES) and uses thereof” (priority 2017, dated 2024).

For part of these data: Some results come without the dose or concentration used.

Series [1] relates to GAME25-Ox potato plants. The series can be described thus: SGA levels by LC-MS in GAME25-Ox potato lines. Type of series: in vivo, Solanum tuberosum. The conditions noted are these: for change in level in leaves: GAME25-Ox potato leaves; for change in level in tuber skin: GAME25-Ox potato tuber skin tissue.
The subject of series [2] is GAME25-RNAi transgenic tomato lines. The series can be described thus: SGA levels by LC-MS in GAME25-RNAi (GAME25i) tomato lines compared to wild-type. Type of series: in vivo, Solanum lycopersicum. The following applies: for change in level compared to wild-type green fruit / increase in level compared to wild-type green fruit / reduction in level compared to wild-type green fruit: GAME25i green fruit; for increase in level compared to wild-type leaves / reduction in level compared to wild-type leaves: GAME25-RNAi tomato leaves, lines #2, #3, #4; for accumulation compared to wild-type breaker fruit / level in GAME25i breaker fruit: GAME25i breaker fruit.

In series [3] the test system is GAME25i S. pennellii transgenic lines. The series is described as follows: SGA levels in leaves of GAME25-silenced S. pennellii. Type of series: in vivo, Solanum pennellii.
Series [4] has as its system SlGAME31 downregulated tomato lines. The series is described as follows: SGA profiling by UPLC-qTOF-MS of red ripe fruit of SlGAME31-RNAi and SlGAME31-Cosup tomato lines. The series is classed as in vivo, Solanum lycopersicum. The conditions noted are these: for increase in level relative to WT plants: SlGAME31-Cosup lines; for increase in level relative to WT plants / increase in level compared to wild-type (WT) plants: skin and flesh of red ripe fruit; for increase in level compared to wild-type (WT) plants / level compared to WT tomato fruit: SlGAME31-RNAi lines; for decrease in level compared to WT tomato fruit: SlGAME31-Cosup lines #7, #5, red ripe fruit; for level compared to WT tomato fruit: red ripe fruit.

`C[C@H]1CC[C@@H]2[C@@H](C)[C@H]3[C@H](C[C@H]4[C@@H]5CC[C@H]6C[C@@H](O)CC[C@]6(C)[C@H]5CC[C@]34C)N2C1` [demissidine]: in series [1], the “change in level in leaves” value is listed as “not detected” and the “change in level in tuber skin” value was “no accumulation”.

On to tomatidine+4 hexose, for which, in series [2], the “change in level compared to wild-type green fruit” value (from here on “change … to wild-type green fruit”) was “complete absence”.

Consider “dehydrotomatidine+4 hexose [dehyrotomatidine+4 hexose]”, for which, in series [2], the “increase in level compared to wild-type leaves” value (from here on “increase … to wild-type leaves”) was 6-9 fold and the “increase in level compared to wild-type green fruit” value (shortened to “increase … to wild-type green fruit”) was 12-18 fold.

As for acetoxy-dehydrotomatine, in series [2], the “accumulation compared to wild-type breaker fruit” value is given as 7-15 fold and the “increase … to wild-type green fruit” value was 12-15 fold. Further, the “change in level after GAME25 silencing” value in series [3] is on record as “enriched”.

As to `CC(=O)OC1C[C@H](C)CNC12O[C@H]1C[C@H]3[C@@H]4CC[C@H]5C[C@@H](O[C@@H]6O[C@H](CO)[C@H](O[C@@H]7O[C@H](CO)[C@@H](O)[C@H](O[C@@H]8OC[C@@H](O)[C@H](O)[C@H]8O)[C@H]7O[C@@H]7O[C@H](CO)[C@@H](O)[C@H](O)[C@H]7O)[C@H](O)[C@H]6O)CC[C@]5(C)[C@H]4CC[C@]3(C)[C@H]1[C@@H]2C` (stereo partly drawn) [acetoxytomatine], in series [2], the “level in GAME25i breaker fruit” value is given as “almost non-existent” and the “reduction in level compared to wild-type green fruit” value (shortened to “reduction … to wild-type green fruit”) is listed as around 30 fold. Moreover, the “change in level after GAME25 silencing” value in series [3] is recorded as “reduced”.

In the case of `C[C@H]1CC[C@H]2[C@@H](C)[C@H]3[C@H](C[C@H]4[C@@H]5CC[C@H]6C[C@@H](O[C@@H]7O[C@H](CO)[C@H](O[C@@H]8O[C@H](CO)[C@@H](O)[C@H](O[C@@H]9OC[C@@H](O)[C@H](O)[C@H]9O)[C@H]8O[C@@H]8O[C@H](CO)[C@@H](O)[C@H](O)[C@H]8O)[C@H](O)[C@H]7O)CC[C@]6(C)[C@H]5CC[C@]34C)N2C1` [demissine], in series [1], the “change in level in leaves” value is “not detected” and the “change in level in tuber skin” value is “no accumulation”.

For the compound acetoxy-hydroxy-dehydrotomatine, the “increase … to wild-type green fruit” value in series [2] is 6-8 fold.

As to `C[C@H]1CC[C@]2(NC1)O[C@H]1C[C@H]3[C@@H]4CC[C@H]5C[C@@H](O[C@@H]6O[C@H](CO)[C@H](O[C@@H]7O[C@H](CO)[C@@H](O)[C@H](O[C@@H]8OC[C@@H](O)[C@H](O)[C@H]8O)[C@H]7O[C@@H]7O[C@H](CO)[C@@H](O)[C@H](O)[C@H]7O)[C@H](O)[C@H]6O)CC[C@]5(C)[C@H]4CC[C@]3(C)[C@H]1[C@@H]2C` [α-tomatine], the “level in GAME25-silenced red ripe fruit” value in series [2] (GAME25-silenced red ripe fruit) is “not detected”. In addition, in series [2], the “reduction … to wild-type green fruit” value is 15-25 fold. In addition, the “change in level after GAME25 silencing” value in series [3] is given as “reduced”. Also, in series [4], the “increase in level relative to WT plants” value is listed as 340-520 fold and the “increase in level compared to wild-type (WT) plants” value was 2.6-8.4 fold.

On to dehydrotomatine isomer (1 and 2), for which the “change … to wild-type green fruit” value in series [2] is given as “increased significantly”.

“α-tomatine isomer (1 and 2) [α-tomatine isomers (1 and 2)]”: in series [2], the “reduction in level compared to wild-type leaves” value is given as 3-4 fold and the “change … to wild-type green fruit” value is on record as “drastic reduction”.

As for hydroxy-dehydrotomatine, in series [2], the “accumulation compared to wild-type breaker fruit” value is 20-30 fold and the “increase … to wild-type green fruit” value is around 25 fold.

`C[C@H]1CC[C@]2(NC1)O[C@H]1C[C@H]3[C@@H]4CC=C5C[C@@H](O[C@@H]6O[C@H](CO)[C@H](O[C@@H]7O[C@H](CO)[C@@H](O)[C@H](O[C@@H]8OC[C@@H](O)[C@H](O)[C@H]8O)[C@H]7O[C@@H]7O[C@H](CO)[C@@H](O)[C@H](O)[C@H]7O)[C@H](O)[C@H]6O)CC[C@]5(C)[C@H]4CC[C@]3(C)[C@H]1[C@@H]2C` [dehydrotomatine]: in series [2], the “increase … to wild-type leaves” value is on record as 4-6 fold and the “increase … to wild-type green fruit” value was 10-12 fold. Moreover, the “change in level after GAME25 silencing” value in series [3] was “enriched”. For the same compound, in series [4], the “increase in level relative to WT plants” value is listed as 105-177 fold and the “increase in level compared to wild-type (WT) plants” value is reported as 1.4-4.3 fold.

On to `C[C@@H]1CNC2(O[C@H]3C[C@H]4[C@@H]5CC[C@H]6C[C@@H](O[C@@H]7O[C@H](CO)[C@H](O[C@@H]8O[C@H](CO)[C@@H](O)[C@H](O[C@@H]9OC[C@@H](O)[C@H](O)[C@H]9O)[C@H]8O[C@@H]8O[C@H](CO)[C@@H](O)[C@H](O)[C@H]8O)[C@H](O)[C@H]7O)CC[C@]6(C)[C@H]5CC[C@]4(C)[C@H]3[C@@H]2C)C(O)C1` (stereo partly drawn) [hydroxytomatine], for which, in series [2], the “reduction in level compared to wild-type leaves” value was 6-10 fold, the “level in GAME25i breaker fruit” value is recorded as “almost non-existent” and the “reduction … to wild-type green fruit” value is listed as around 100 fold. Moreover, in series [4], the “decrease in level compared to WT tomato fruit” value is reported as 1.8-6 fold and the “level compared to WT tomato fruit” value is on record as “remained in similar levels”.

`C[C@H]1CC[C@@H]2[C@@H](C)[C@H]3[C@H](C[C@H]4[C@@H]5CC=C6C[C@@H](O[C@@H]7O[C@H](CO)[C@H](O[C@@H]8O[C@@H](C)[C@H](O)[C@@H](O)[C@H]8O)[C@H](O)[C@@H]7O[C@@H]7O[C@@H](C)[C@@H](O)[C@@H](O)[C@H]7O)CC[C@]6(C)[C@H]5CC[C@]34C)N2C1` [α-chaconine]: in series [1], the “change in level in leaves” value is on record as “significant reduction” and the “change in level in tuber skin” value is reported as “no major change”.

With acetoxy-hydroxytomatine, in series [2], the “level in GAME25i breaker fruit” value was “almost non-existent” and the “reduction … to wild-type green fruit” value is around 50 fold.

In the case of `C[C@H]1CC[C@@H]2[C@@H](C)[C@H]3[C@H](C[C@H]4[C@@H]5CC=C6C[C@@H](O[C@@H]7O[C@H](CO)[C@H](O)[C@H](O[C@@H]8O[C@H](CO)[C@@H](O)[C@H](O)[C@H]8O)[C@H]7O[C@@H]7O[C@@H](C)[C@H](O)[C@@H](O)[C@H]7O)CC[C@]6(C)[C@H]5CC[C@]34C)N2C1` [α-solanine], in series [1], the “change in level in leaves” value is listed as “significant reduction” and the “change in level in tuber skin” value was “no major change”.

With dehydrotomatine isomer 1, in series [2], the “increase … to wild-type leaves” value was 9-11 fold.

Take `CC(=O)O[C@H]1C[C@H](CO[C@@H]2O[C@H](CO)[C@@H](O)[C@H](O)[C@H]2O)CN[C@@]12O[C@H]1C[C@H]3[C@@H]4CC[C@H]5C[C@@H](O[C@@H]6O[C@H](CO)[C@H](O[C@@H]7O[C@H](CO)[C@@H](O)[C@H](O[C@@H]8OC[C@@H](O)[C@H](O)[C@H]8O)[C@H]7O[C@H]7O[C@H](CO)[C@@H](O)[C@H](O)[C@H]7O)[C@H](O)[C@H]6O)CC[C@]5(C)[C@H]4CC[C@]3(C)[C@H]1[C@H]2C` [esculeoside A]: in series [2], the “level in GAME25i breaker fruit” value is “almost non-existent”. Besides, in series [4], the “decrease in level compared to WT tomato fruit” value is reported as 4-29 fold and the “level compared to WT tomato fruit” value is “remained in similar levels”.

As for `C[C@H]1CC[C@]2(NC1)O[C@H]1C[C@H]3[C@@H]4CC=C5C[C@@H](O)CC[C@]5(C)[C@H]4CC[C@]3(C)[C@H]1[C@@H]2C` [dehydrotomatidine], in series [2] (GAME25i tomato lines, leaves), the “change in level compared to wild-type” value is reported as “No significant accumulation”.
